In paper PMC8984016:
No constants are given. Whether binding was seen depends on the method and setting. In cells and extracts the contact can be indirect. Some results given as binding are weak or reduced against the parent protein; the word gives no strength.

By UniProt entry, the sequences of proteins in these tests, tags left out.
UniProt P42224: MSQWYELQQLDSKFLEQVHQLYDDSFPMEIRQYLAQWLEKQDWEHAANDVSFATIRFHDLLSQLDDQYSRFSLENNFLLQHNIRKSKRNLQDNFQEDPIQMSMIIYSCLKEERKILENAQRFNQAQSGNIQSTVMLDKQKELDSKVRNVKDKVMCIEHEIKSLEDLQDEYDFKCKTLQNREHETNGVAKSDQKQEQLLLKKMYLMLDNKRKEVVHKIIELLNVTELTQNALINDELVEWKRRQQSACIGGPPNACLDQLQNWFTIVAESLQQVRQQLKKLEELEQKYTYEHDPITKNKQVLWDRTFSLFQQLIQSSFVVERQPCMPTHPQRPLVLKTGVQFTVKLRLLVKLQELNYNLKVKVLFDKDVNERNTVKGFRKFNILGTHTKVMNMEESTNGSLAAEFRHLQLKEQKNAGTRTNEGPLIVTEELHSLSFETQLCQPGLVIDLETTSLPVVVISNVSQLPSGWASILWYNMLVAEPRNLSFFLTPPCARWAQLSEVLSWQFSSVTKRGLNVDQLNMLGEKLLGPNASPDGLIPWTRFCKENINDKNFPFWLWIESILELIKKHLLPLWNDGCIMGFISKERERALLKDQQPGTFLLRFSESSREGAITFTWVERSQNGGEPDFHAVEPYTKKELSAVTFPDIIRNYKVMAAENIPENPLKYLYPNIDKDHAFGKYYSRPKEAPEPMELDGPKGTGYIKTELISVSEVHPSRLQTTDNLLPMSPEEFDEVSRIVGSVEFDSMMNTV
UniProt P29350: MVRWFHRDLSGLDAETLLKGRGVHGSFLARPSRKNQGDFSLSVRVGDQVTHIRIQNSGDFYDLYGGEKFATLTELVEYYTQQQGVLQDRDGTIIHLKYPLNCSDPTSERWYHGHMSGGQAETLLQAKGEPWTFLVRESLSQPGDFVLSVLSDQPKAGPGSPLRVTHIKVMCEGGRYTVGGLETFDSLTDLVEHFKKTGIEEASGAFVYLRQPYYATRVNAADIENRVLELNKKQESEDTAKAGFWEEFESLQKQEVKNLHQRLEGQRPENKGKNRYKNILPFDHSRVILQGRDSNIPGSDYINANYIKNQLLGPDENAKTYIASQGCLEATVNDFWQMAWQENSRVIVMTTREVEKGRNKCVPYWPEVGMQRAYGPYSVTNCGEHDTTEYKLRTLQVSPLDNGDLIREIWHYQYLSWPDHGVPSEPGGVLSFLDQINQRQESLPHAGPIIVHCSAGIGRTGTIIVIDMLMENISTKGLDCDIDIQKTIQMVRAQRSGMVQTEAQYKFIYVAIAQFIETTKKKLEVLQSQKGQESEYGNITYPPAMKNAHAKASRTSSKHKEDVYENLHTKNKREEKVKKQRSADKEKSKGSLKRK

Molecular target: signal transducer and transcription activator 1 (STAT1) (human (endogenous in HT29 and SW480)) (UniProt P42224)
Experiment: co-IP; lysates of HT29 and SW480 cells treated with 10 ng/mL IFN-γ (or PBS) for 24 hours, in one panel after SCR or GBP2 siRNA for 36 hours; immunoprecipitation with anti-STAT1 antibody, western blot

Row | binding | Molecule
1 | binds | SH2-containing protein tyrosine phosphatase 1 (SHP1) (from UniProt P29350 1-595) (enzyme)
2 | binds | guanylate binding protein 2 (GBP2) (protein, UniProt P32456 1-591) MAPEINLPGPMSLIDNTKGQLVVNPEALKILSAITQPVVVVAIVGLYRTGKSYLMNKLAGKKNGFSLGSTVKSHTKGIWMWCVPHPKKPEHTLVLLDTEGLGDIEKGDNENDSWIFALAILLSSTFVYNSMGTINQQAMDQLHYVTELTDRIKANSSPGNNSVDDSADFVSFFPAFVWTLRDFTLELEVDGEPITADDYLELSLKLRKGTDKKSKSFNDPRLCIRKFFPKRKCFVFDWPAPKKYLAHLEQLKEEELNPDFIEQVAEFCSYILSHSNVKTLSGGIPVNGPRLESLVLTYVNAISSGDLPCMENAVLALAQIENSAAVEKAIAHYEQQMGQKVQLPTETLQELLDLHRDSEREAIEVFMKNSFKDVDQMFQRKLGAQLEARRDDFCKQNSKASSDCCMALLQDIFGPLEEDVKQGTFSKPGGYRLFTQKLQELKNKYYQVPRKGIQAKEVLKKYLESKEDVADALLQTDQSLSEKEKAIEVERIKAESAEAAKKMLEEIQKKNEEMMEQKEKSYQEHVKQLTEKMERDRAQLMAEQEKTLALKLQEQERLLKEGFENESKRLQKDIWDIQMRSKSLEPICNIL
